Source: patent US20250084163A1
Positions count from the first letter of the chain named. These are yes or no findings as the source states them, for the method shown. Some binding calls cover weakened binding; strength is not graded here. Blank lines part the entries; values can stand above or below the binder they belong to.

Protein sequences, listed by entry. Tags and fused reporters are not part of them. Residues count along the entry.
UniProt Q9Z139, residues 30-403: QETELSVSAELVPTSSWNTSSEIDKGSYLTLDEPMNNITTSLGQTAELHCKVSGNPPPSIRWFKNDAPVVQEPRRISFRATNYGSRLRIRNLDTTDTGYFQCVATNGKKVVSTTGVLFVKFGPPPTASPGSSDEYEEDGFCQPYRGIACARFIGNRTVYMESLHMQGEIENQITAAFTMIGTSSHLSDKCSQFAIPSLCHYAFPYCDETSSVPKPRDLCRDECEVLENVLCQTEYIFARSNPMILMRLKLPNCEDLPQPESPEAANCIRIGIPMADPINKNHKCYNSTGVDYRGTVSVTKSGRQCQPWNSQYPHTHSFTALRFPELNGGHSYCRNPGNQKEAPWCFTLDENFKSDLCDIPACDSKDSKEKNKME

What was measured:
[1] = molecular target: Recombinant mouse his-tag ROR1 (mouse) (UniProt Q9Z139); assay: ELISA, antibody coated at 5 ug/mL, his-tagged antigen at 2 ug/ml, anti-his HRP
[2] = molecular target: recombinant mouse ROR1-mouse IgG2-Fc fusion protein (mouse) (UniProt Q9Z139); assay: ELISA, mouse ROR1-mouse IgG2-Fc coated at 2 ug/mL, antibody titrated, anti-human IgG-Fc HRP

binding [1]: binds
B1: RO6D8wt (antibody, V domains shown)
VH: QVQLVQSGAEVKKPGASVKVSCKASGYTFTNYYMHWVRQAPGQGLEWMGIINPSGGSTSYAQKFQGRVTMTRDTSTSTVYMELSSLRSEDTAVYYCARDSSSWYSGWYFDLWGQGTTVTVSS
VL: AIQMTQSPSSLSASVGDRVTITCRASQDVRAHLAWYQQKPGKAPKLLIYAASSLQSGVPSRFSGSGSGTDFTLTISSLQPEDFATYYCQQFNSYPITFGQGTRLEIK

binding [1]: binds | binding [2]: binds
B2: RO6D8-jlv1011 (antibody, V domains shown)
VH: QVQLVQSGAEVKKPGASVKVSCKASGYTFTSKYYHWVRQAPGQGLEWMGIINPTSGSTSYAQKFQGRVTMTRDTSTSTVYMELSSLRSEDTAVYYCARDSSRYSGWYFDLWGQGTTVTVSS
VL: B1 VL with M4L, D28G, R30S, A31T, H32E, L33I, F91Y, N92Y, S93G, T97A
